# According to US10058612B2, “Impaired energy processing disorders and mitochondrial deficiency” (priority 2011, dated 2018):
# Test system: WT (W303) yeast
# Details: 200 μM, 4 h incubation
substance,measurement,value
"11,11,14,14-Tetradeutero-cis,cis,cis-octadeca-8,12,15-trienoic acid [D4-ALA]",incorporation of fatty acid by yeast,avidly incorporate
